Results are given in words; binding and its absence hold for the method and conditions named.
Target: T1, a-Dystroglycan peptide Ac-…-NH2 (chart ID 9)
T1 sequence (peptide, N-terminal acetyl; C-terminal amide; no GalNAc): PPTTTTKKP
Assay: Tn glycopeptide microarray, Alexa Fluor 488 goat anti-mouse IgM

B1: BaGs6, murine IgM anti-Tn monoclonal antibody from mouse ascites (antibody, V domains shown)
VH: DTMLQQSDAELVKPGASVKMSCKASGYTFTDHAIHWVKQKPEQGLEWIGYVSPGNGDIKYNEKFKGKATLSADKSSSTAYMQLNSLTSEDSAVYFCKRSYGSFDYWGQGTTLTVSS
VL: QIVLTQSPAIMSSSPGEKVALSCSASSSVSYVYWYQQKPGSSPKPWIYRTSNLASGVPARFSGSGSGTSYSLTISSMEAEDAATYYCQQYHSYPFTFGSGTKLEIKR
binding: no binding (tested: 1:200 dilution (text paragraph 261))
